# Data reported in article PMC12040169 (PLOS Biology, 2025).
# The other results are listed elsewhere or left out.
# System: T1, CTL2-GFP (C. trachomatis L2/434/Bu, GFP-expressing)
# T1 construct: L2/434/Bu, GFP-expressing
# Design: species or system HeLa; Intracellular C. trachomatis growth in HeLa cells, bulk GFP fluorescence relative to DMSO
# Settings: bulk GFP, single well; 28.5 h, 10 µM; inhibitor
row,Compound,% of control remaining [%]
1,Cn1cccc1C(=O)N1CCC(Cc2ccccc2)CC1 [CBK200182],85.7601
2,c1ccc2c(c1)/C(=N/OCCN1CCCC1)CC21CCCCC1 [CBK013322],139.161
3,COc1ccc(-c2onc(C)c2-c2cnn(-c3ccccc3)c2)c(O)c1 [CBK296095],111.84
4,Cc1ccc(CCC(=O)N2CCNCC2C)c(C)c1 (stereo not drawn) [CBK304481],152.271
5,O=C1c2ccccc2-c2onc3c(NCc4ccccc4)cc(Nc4ccccc4)c1c23 [CBK261979],95.7136
6,O=C(NC1Cc2ccccc2C1)c1cnccc1C(F)(F)F [CBK200353],119.383
7,O=C(O)CC(C(=O)O)c1ccc(F)cc1 (stereo not drawn) [CBK268531],125.071
8,Cc1ccc(C(=O)NCCC(=O)Nc2ccccn2)cc1NC(=O)c1ccco1 [CBK298328],152.743
9,CCC1CCCCN1C(=O)c1cc(C)oc1C (stereo not drawn) [CBK089358],51.0191
10,COc1ccccc1N(CC(O)Cn1nc(C)cc1C)S(=O)(=O)c1ccccc1 (stereo not drawn) [CBK264546],115.387
11,O=C(CSc1nnc(-c2ccncc2)s1)Nc1ccc(Cl)cc1 [CBK270069],115.112
12,CN(C)CCN1CCN(c2cncc(-c3cccc(C(=O)O)c3)n2)CC1 [CBK065443],186.216
13,CCc1cc(Br)ccc1S(=O)(=O)NC(CC)COC (stereo not drawn) [CBK045265],49.3231
14,Fc1ccc(OCc2ccc(-c3nnn[nH]3)cc2)cc1 [CBK267859],99.6788
15,CS(=O)(=O)Nc1ccc(C(=O)Nc2ccc(S(=O)(=O)N3CCCCCC3)cc2)cc1 [CBK268288],78.0512
16,O=C([C@@H]1C[C@@H]2C=C[C@H]1C2)N1CCC(c2noc3cc(F)ccc23)CC1 [CBK281542],136.291
17,CN(C)Cc1ccc2nc(C(F)(F)F)cc(SCCC(=O)O)c2c1 [CBK149715T],96.638
18,COc1cc(-c2cn3ccnc3c(N(C)CCN(C)C)n2)cc(OC)c1OC [CBK066196],139.905
19,Cc1csc(C(Cc2ccsc2)NC(=O)C2CCCO2)n1 (stereo not drawn) [CBK285122],78.7415
20,CS(=O)(=O)c1ccc(-c2cnc3[nH]c(=O)n(Cc4cccs4)c3n2)cc1 [CBK064383],147.407
21,Cc1ccccc1C1NC(=O)NC2=C1C(=O)N(C)C2 (stereo not drawn) [CBK288026],124.264
22,Cc1cc(C2CCCCCN2C(=O)c2cc(C3CC3)on2)on1 (stereo not drawn) [CBK285414],115.181
23,CCn1c(C)nnc1CN(CC1CCCO1)C1CCCC1 (stereo not drawn) [CBK304181],126.978
24,O=C(Nc1cncc(OC2CCNCC2)n1)c1cnccn1 [CBK036372T],123.559
25,FC(F)(F)c1cccc(-c2nccnc2NCc2ccc3c(c2)OCO3)c1 [CBK037350],156.324
26,Cc1nnc2ccc(N3CCN(Cc4cscn4)CC3)nn12 [CBK304910],113.365

row,Compound,% of control remaining [%]
1,O=C(O)c1cc(Cl)c(OCc2cc(-c3ccccc3)no2)c(Cl)c1 [CBK295297],151.233
2,Cn1c(=O)c2[nH]c(-c3ccc(OCC(=O)NCCc4ccccc4)cc3)nc2n(C)c1=O [CBK269092],118.322
3,CC(=O)c1ccc(NC(=O)CSc2nc(O)cc(-c3ccccc3)n2)cc1 [CBK269048],128.099
4,O=C(Nc1cccc(N2CCCC2=O)c1)c1ccccc1Nc1ccccc1 [CBK297729],123.568
5,COCCN1CCn2c(nc3cc(NC(=O)c4cccc([N+](=O)[O-])c4)ccc32)C1 [CBK267965],112.414
6,COc1ccc(C2NC(C(=O)O)CS2)cc1CN1C[C@@H]2C[C@H](C1)c1cccc(=O)n1C2 (stereo partly drawn) [CBK020798],119.998
7,CN1CCC(C(=O)NC(=O)Nc2ccccc2F)CC1 [CBK034827],144.794
8,COc1cccc(CN2CCOC3(CCN(C(=O)OCc4ccccc4)CC3)C2)c1 [CBK161098T],120.044
9,CC(C)(C)COC(=O)N1CCC(N2CCOc3ccc(-c4ccc(S(C)(=O)=O)cc4)cc3C2)CC1 [CBK169264],111.136
10,COC(=O)C1(Cc2ccccc2-c2ccncc2)CCNC1 (stereo not drawn) [CBK281435],121.358
11,CCCCCCOC(=O)c1ccc2c(c1)C(=O)N(c1cccc(N)c1)C2=O [CBK157034],121.875
12,CCCSc1nnc(-c2c(Cl)c(CC)nn2C)s1 [CBK026135],155.774
13,NS(=O)(=O)c1ccc2c(c1)N(Cc1nc(-c3ccco3)no1)CC2 [CBK304291],126.442
14,Cc1cccc(C)c1NC(=O)CSc1nnc(C(O)c2ccccc2)n1C (stereo not drawn) [CBK269742],109.892
15,O=C(CSc1nnc(-c2ccco2)n1-c1ccccc1)NCc1ccc2c(c1)OCO2 [CBK267308],143.321
16,COc1ccc(F)c(CNCCNC(=O)OC(C)(C)C)c1 [CBK056699],161.474
17,CC(C)(C)c1cc(NC(=O)C(C)(C)S(=O)(=O)c2ccc(C(F)(F)F)cn2)no1 [CBK006849],101.512
18,Cc1cc(C(=O)N2CCCCCC2c2nn(C)cc2Cl)on1 (stereo not drawn) [CBK285121],124.238
19,COc1ccc(C(=O)Nc2ccc(N3CCOCC3)c(Cl)c2)cc1[N+](=O)[O-] [CBK263894],110.726
20,O=C(OCc1ccc(Br)cc1)c1ccccc1S(=O)(=O)c1ccccc1[N+](=O)[O-] [CBK265718],156.123
21,O=C(O)CCC(=O)Nc1ccccc1C(=O)N1CCCCCC1 [CBK269863],142.723
22,CN(C)CCN1CCN(c2nc(-c3cccc(C(N)=O)c3)cnc2N)CC1 [CBK063537],96.6676
23,Cc1cc(CNC(=O)COc2cc(Cl)ccc2Cl)c2ccccc2n1 [CBK269788],119.814
24,CC(C)(C)c1ccnc(N[C@H]2CO[C@H]3[C@@H]2OC[C@@H]3NC(=O)c2cccs2)n1 [CBK289520],115.952
25,N=C(N)NS(=O)(=O)c1ccc(N/C=C\C(=O)c2ccc3ccccc3c2)cc1 [CBK263374],49.3534
26,N=C(Nc1nc(=O)cc(CSc2ccc(Cl)cc2)[nH]1)Nc1cccc2ccccc12 [CBK266504],167.481

row,Compound,% of control remaining [%]
1,CC(=O)Nc1ccc(-n2cc(COC3CCN(C(=O)OC(C)(C)C)CC3)nn2)cc1 [CBK149481],114.081
2,CCc1nc2c(Oc3nc4ccccc4s3)cccn2c1N(C=O)Cc1ccc(OC)cc1 [CBK147819],106.388
3,O=C(O)CNC(=O)Cn1ccc2cc(OCc3ccccc3)ccc21 [CBK286665],135.411
4,CCn1cc(C(=O)NC2CC3(CCCC3)Oc3ccccc32)c(C)n1 (stereo not drawn) [CBK282340],117.705
5,COc1ccc(C)c(NC(=O)NCCc2c[nH]cn2)c1 [CBK269992],137.658
6,Cc1nc2c(c(N(C)C)n1)CCN(C(=O)c1cnn(C(C)C)c1)C2 [CBK307083],109.876
7,COc1ccc(C2N(N3C(=O)CC(=O)NC3=O)C(=O)CS2(=O)=O)cc1OC (stereo not drawn) [CBK012702],74.4732
8,CC(CCc1ccccc1)NC(=O)CCC(=O)O (stereo not drawn) [CBK267918],129.769
9,CN(Cc1ccccc1NCCn1c(=O)oc2ccccc21)C1CCCCC1 [CBK296678],104.664
10,O=C(COc1cc(Cl)c(Cl)cc1Cl)N1CCN(c2ccc([N+](=O)[O-])cc2)CC1 [CBK263783],100
11,O=c1c2ccccc2nc(CSc2ncnc3[nH]cnc23)n1-c1cccc(C(F)(F)F)c1 [CBK264991],100
12,Cc1nnc(-c2cccc(S(=O)(=O)n3ccn(-c4cccc(C(F)(F)F)c4)c3=O)c2)o1 [CBK106592],160.322
13,C=CCn1c(Cc2csc(NC(=O)c3cc4ccccc4o3)n2)n[nH]c1=S [CBK295329],173.083
14,O=C(NC1Cc2ccccc2C1)c1ccc2ccccc2n1 [CBK200355],123.177
15,C=C(C)CN1CCN(C(C(=O)O)c2c[nH]c3cc(F)ccc23)CC1 (stereo not drawn) [CBK286835],125.602
16,Cc1ccc(C2(CNC(=O)CCc3ccncc3)CCOCC2)cc1 [CBK281574],109.886
17,Cc1cc(CN2CCN(CCc3ccccc3)CC2)no1 [CBK126426],125.883
18,O=C(O)c1ccc(CSc2nnc(-c3ccncc3)o2)cc1 [CBK266352],201.785
19,Cc1cc(C)c(NC(N)=O)c(C)c1 [CBK086399],144.659
20,O=C(NCc1c(Cl)cccc1Cl)N1CCCCC1CO (stereo not drawn) [CBK156184],108.955
21,Cc1ccc(C(=O)O)cc1NS(=O)(=O)c1ccc2c(c1)OCCO2 [CBK297497],135.493
22,O=C(C1CCCC1)N1CC(n2nc(-c3cccs3)ccc2=O)C1 [CBK283345],113.092
23,Cc1nn2c(=O)[nH]ncc2c1-c1ccccc1C(=O)N(C(C)C)C(C)C [CBK307043],92.7739
24,O=C(c1ccc(Oc2ccccc2)cc1)N1CCC2(CCN(Cc3ccccc3)C2)C1 (stereo not drawn) [CBK136833],137.945
25,O=C(Cc1c[nH]c(=O)[nH]c1=O)Nc1ncc(Cc2ccc(F)cc2)s1 [CBK285674],118.93
26,CCC(=O)N1CCN(c2nc3ccc(OC)cc3s2)CC1 [CBK287721],104.097

# Shown with tabs: 5 of the compounds above.
row	Compound	% of control remaining [%]
16	Cc1ccc(C2(CNC(=O)CCc3ccncc3)CCOCC2)cc1 [CBK281574]	109.886
17	Cc1cc(CN2CCN(CCc3ccccc3)CC2)no1 [CBK126426]	125.883
18	O=C(O)c1ccc(CSc2nnc(-c3ccncc3)o2)cc1 [CBK266352]	201.785
19	Cc1cc(C)c(NC(N)=O)c(C)c1 [CBK086399]	144.659
20	O=C(NCc1c(Cl)cccc1Cl)N1CCCCC1CO (stereo not drawn) [CBK156184]	108.955
